This is one part of the list.
Target: T1, OsSMF1 (Oryza sativa, UniProt Q6ZLB0 1-436)
T1 sequence: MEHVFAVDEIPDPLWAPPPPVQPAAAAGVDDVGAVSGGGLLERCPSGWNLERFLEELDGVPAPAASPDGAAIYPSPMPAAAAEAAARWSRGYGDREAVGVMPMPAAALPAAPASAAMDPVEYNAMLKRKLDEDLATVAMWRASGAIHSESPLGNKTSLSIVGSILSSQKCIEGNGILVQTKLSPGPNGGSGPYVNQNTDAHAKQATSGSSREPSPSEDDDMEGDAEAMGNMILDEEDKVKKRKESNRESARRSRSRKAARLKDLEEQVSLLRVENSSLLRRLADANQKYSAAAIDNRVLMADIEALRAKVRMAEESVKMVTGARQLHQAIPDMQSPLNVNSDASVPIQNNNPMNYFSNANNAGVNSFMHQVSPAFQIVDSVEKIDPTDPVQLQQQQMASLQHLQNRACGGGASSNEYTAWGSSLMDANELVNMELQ
Experiment: protein-binding microarray (RPBM); PBS, 2% BSA, 51.3 ng/ul salmon testes DNA, 50 uM zinc acetate, 200 nM TF, 25 C, 1 h; high values mean tight binding
Conditions: protein: recombinant; tags: N-terminal polyhistidine and DsRed monomer fusion (pET32a); chain copies: 2; label: CyDye5-dUTP incorporated in the synthesized complementary strand; 3' TTTTT single-stranded linker to array surface; dsDNA, one strand shown
Method in brief: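 Transcription factors were made in E. coli BL21-CodonPlus as N-terminal fusions to a polyhistidine tag and DsRed, then purified on Ni–NTA. After primer extension with Cy5-dUTP and blocking with 2% BSA, a custom Agilent array was exposed for 1 h at 25 °C to 200 nM protein in PBS, 2% BSA, salmon testes DNA and 50 µM zinc acetate. Washed arrays were scanned on an Axon 4000B, and the binding signal is per-feature fluorescence intensity in arbitrary units.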

First: ACCTCTGTCGTCATACTTGATCGGTTGATCTGGCAATTTCCGGAGTCACCTAGTGCAG
Second: GATAATGAGAGGTTGAACACAATGACTCACCAACTCGAGGCGGAGTCACCTAGTGCAG
The binding signal of the first is lower: 4810 fluorescence intensity (a.u.) for the first, 11900 fluorescence intensity (a.u.) for the second.

First: CCTCGCGCGGGCCGTCCGTTCCACGCGCCCATCCACTCACCGGAGTCACCTAGTGCAG
Second: TACTAGTTCAACATTCGATTTGACATGGCTTAATCCCTGTCGGAGTCACCTAGTGCAG
The binding signal of the first is higher: 28400 fluorescence intensity (a.u.) for the first, 3480 fluorescence intensity (a.u.) for the second.

Compared with “TACGCAAAATAATGTGTTCTACACTAGGATGTCTGAGTTTCGGAGTCACCTAGTGCAG”, “CGCGCCGAGCGGGTCCGCTTGGTGGAGGACGACGTGGAGGCGGAGTCACCTAGTGCAG” is lower in binding signal: 19500 fluorescence intensity (a.u.) for the first, 4920 fluorescence intensity (a.u.) for the second.

First: TCGATGACACGTGGGGCCAGAAACCCTCGTGGTCCATACGCGGAGTCACCTAGTGCAG
Second: CGCAGCCACGTGCATTCTTACGTACTCATCGGCGCATCGGCGGAGTCACCTAGTGCAG
The binding signal of the first is higher: 12600 fluorescence intensity (a.u.) for the first, 8170 fluorescence intensity (a.u.) for the second.

First: GATCCAGATTACTGTGATGTTTTAATCTCCACTATAAACTCGGAGTCACCTAGTGCAG
Second: GAGATGGTACCGTGCCACGACGTCGTCCCGTCCCACCTCGCGGAGTCACCTAGTGCAG
The binding signal of the first is lower: 3220 fluorescence intensity (a.u.) for the first, 4680 fluorescence intensity (a.u.) for the second.

First: GTGGCCACTTGCATCAGCCGGCCATGAGTGGAGGGGTAAGCGGAGTCACCTAGTGCAG
Second: GATCAGTGCTTGGACGCATCAATAATAAGTGACAATTCTACGGAGTCACCTAGTGCAG
The binding signal of the first is higher: 49700 fluorescence intensity (a.u.) for the first, 4960 fluorescence intensity (a.u.) for the second.

Going from “TCGTCAAGCTGCTCAGCGTCCGCCGCGTCAGCTCGTTCCACGGAGTCACCTAGTGCAG” to “GGCGCCGGCGGCCGCCACGCGTCCCGCGTCGCGCTGTCCACGGAGTCACCTAGTGCAG”, the binding signal falls from 12500 fluorescence intensity (a.u.) to 4190 fluorescence intensity (a.u.).

First: TTCTACTATGTCATTCTAGTACTATATAAAACTACTATGCCGGAGTCACCTAGTGCAG
Second: GGAGAATAACACATGCCAACGTGGTTGAATGTGCAGAGGTCGGAGTCACCTAGTGCAG
The binding signal of the first is lower: 3690 fluorescence intensity (a.u.) for the first, 5980 fluorescence intensity (a.u.) for the second.

Compared with “GGAAGTTCAGAAAACGTTTCATATGCATGCCATTATCTCTCGGAGTCACCTAGTGCAG”, “TTTAGGGGATAGGTTAGTCCACTGCACAAGCAACGTGTCGCGGAGTCACCTAGTGCAG” is lower in binding signal: 12600 fluorescence intensity (a.u.) for the first, 3530 fluorescence intensity (a.u.) for the second.

Going from “GGAAAGCCGAGCACCGAACCGAGTCACCGACTCGCCTCGCCGGAGTCACCTAGTGCAG” to “CGTCGCATTGCCACCAGCGCATGACGCCATGTCGTCGCATCGGAGTCACCTAGTGCAG”, the binding signal rises from 3230 fluorescence intensity (a.u.) to 7930 fluorescence intensity (a.u.).

Compared with “CTAATTTAGAACTGGATGTGACACATTCTATTACTATCCCCGGAGTCACCTAGTGCAG”, “TTTCTTCTGTCAAATGACAGGGACTATAGTTATCTATCCTCGGAGTCACCTAGTGCAG” is higher in binding signal: 4800 fluorescence intensity (a.u.) for the first, 28300 fluorescence intensity (a.u.) for the second.

First: AAGCTGTTTCACAAGGCAGTTTTGCATACGTGGCGGGCTGCGGAGTCACCTAGTGCAG
Second: CCTCGCCGTCTGGCCCGCGGAGGCGTGGCCGCCTTCCACGCGGAGTCACCTAGTGCAG
The binding signal of the first is higher: 21500 fluorescence intensity (a.u.) for the first, 7770 fluorescence intensity (a.u.) for the second.

Compared with “ACTATATATATACACTACGGTTGACAAAGACATCCCAACACGGAGTCACCTAGTGCAG”, “CGGCGGACAGGCGAGGCGGCGCGGCGCGGCGCGGGCGGGGCGGAGTCACCTAGTGCAG” is higher in binding signal: 3240 fluorescence intensity (a.u.) for the first, 4780 fluorescence intensity (a.u.) for the second.

First: GGTGTGTGTGTGTGTGGCATGGCAGGGCATGGATCCCTCCCGGAGTCACCTAGTGCAG
Second: CCTTTTCAATGTTCTTGTCATCACTGCTCGTGTCACCCGTCGGAGTCACCTAGTGCAG
The binding signal of the first is lower: 5270 fluorescence intensity (a.u.) for the first, 5650 fluorescence intensity (a.u.) for the second.

Compared with “GGCAGCCCGACCTACGCGTACCCACGTATTCCCCACCTTACGGAGTCACCTAGTGCAG”, “TTGTTTGTTTTCCGTGAACATACGGACATACCCTTTGACACGGAGTCACCTAGTGCAG” is lower in binding signal: 7360 fluorescence intensity (a.u.) for the first, 3970 fluorescence intensity (a.u.) for the second.

Compared with “ATACATCACTTTATCAAATCCTGATGTAATCATTCTTCACCGGAGTCACCTAGTGCAG”, “GATACCGGTTGGGTGACGTCGTTTAATGAAGATGAACGGTCGGAGTCACCTAGTGCAG” is higher in binding signal: 4000 fluorescence intensity (a.u.) for the first, 4460 fluorescence intensity (a.u.) for the second.

Going from “CATGCCATATATGTACATTATATCTACAATGTTCCATATGCGGAGTCACCTAGTGCAG” to “GTCCGTCGCGCGTCACCGCGTGCCTCGCCACGCCCACGCCCGGAGTCACCTAGTGCAG”, the binding signal rises from 3620 fluorescence intensity (a.u.) to 5090 fluorescence intensity (a.u.).

Going from “CTGCTACTGATTCTATGAGGTGGCATAGCATGGAAATCAGCGGAGTCACCTAGTGCAG” to “ACCTAAAGCAAACTTACTCCCACTCTTAGTGACACGGATCCGGAGTCACCTAGTGCAG”, the binding signal falls from 4820 fluorescence intensity (a.u.) to 3640 fluorescence intensity (a.u.).

First: CATTTATCTAGAAATAATTTACTCATTATTTCAACTGATCCGGAGTCACCTAGTGCAG
Second: GCCGCTACCCTCCTCGTCGGTGTCGGGCTATTTATACACTCGGAGTCACCTAGTGCAG
The binding signal of the first is higher: 28500 fluorescence intensity (a.u.) for the first, 4530 fluorescence intensity (a.u.) for the second.

Going from “ATCGAACGCAAGAAAGAACATGACACCTCATCCAACAGCTCGGAGTCACCTAGTGCAG” to “CCCTTCTCTGGAGACGCCACGCCCACGTTCCTCTCGTCTCCGGAGTCACCTAGTGCAG”, the binding signal falls from 5710 fluorescence intensity (a.u.) to 3180 fluorescence intensity (a.u.).

Compared with “GGTACGGTCGCTGAGGAGAGGCTGGCGTGGGCGGTGGAGCCGGAGTCACCTAGTGCAG”, “GAAGAAGAAGCTCTAGATAGCTATATATCCCAGCTGCTGCCGGAGTCACCTAGTGCAG” is higher in binding signal: 3190 fluorescence intensity (a.u.) for the first, 27700 fluorescence intensity (a.u.) for the second.
